Experimental data published in article PMC12470938.
Where a protein sequence is shown, tags need not be part of it.

Target: T1, Rme1 (Trichoderma reesei) (UniProt G0RR27)
T1 sequence (looked up): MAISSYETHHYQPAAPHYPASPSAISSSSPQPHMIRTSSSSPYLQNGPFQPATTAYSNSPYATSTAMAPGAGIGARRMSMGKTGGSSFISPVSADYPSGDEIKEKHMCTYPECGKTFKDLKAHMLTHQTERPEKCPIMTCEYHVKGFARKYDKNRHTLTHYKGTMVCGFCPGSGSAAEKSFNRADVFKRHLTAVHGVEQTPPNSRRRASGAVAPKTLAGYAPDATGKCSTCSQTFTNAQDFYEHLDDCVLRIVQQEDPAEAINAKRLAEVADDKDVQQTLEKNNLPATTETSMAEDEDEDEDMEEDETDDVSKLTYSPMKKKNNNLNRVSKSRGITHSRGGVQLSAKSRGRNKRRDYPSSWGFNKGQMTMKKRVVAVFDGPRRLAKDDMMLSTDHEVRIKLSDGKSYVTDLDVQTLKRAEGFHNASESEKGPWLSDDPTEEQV
Assay: EMSA
Conditions: 50 µM zinc sulfate, retardation occurs upon addition of 1.6 µM Rme1, 20 mM Tris-HCl pH 7.4, 50 mM KCl, 5% glycerol, 1 mM DTT, 50 µg/mL BSA, 100 ng probe, 25 min at room temperature, 6% native PAGE at 4 °C, recombinant protein, residues 83-525, protein details: GST (pGEX-4T-1, N-terminal by vector), label: none (SYBR Gold stain), probe letters rebuilt from the primers and the genome

“TTCGATTCGTAGCATGGGCGCCAGGGAGGGCAAGTGCGGGAGTACGTGGTGTGCGTACCGTGCTGTACCTGGGAGGGCGGTACTTGTGGGCAAGTACCCCGACCGCACCACCGCGAAGCACATGCTGCGGTCGCTACACGGGGCGGTAAATCAGGGGCGTCACGCAGGGCTTAGGCAGCGACATTTGGGGGTGCAACAGCGCTGCATGCCACCGTCCAGTGGCTCGATGGCGCGATGGGGCGCTGGAAGGACGAGGGGGGCAGAGGGACGGGACACGTCGCCAGGGCTCAGAGACGGCCAGAAAGGGGGCACGGGGTACTTGTCGGCTCTCAGACGGTTGTACCTCGC (double strand) [Pcre1 probe]”: binds.
